From article doi:10.1101/2025.04.09.648038
Results are given in words; binding and its absence hold for the method and conditions named. In cells and extracts the contact can be indirect. These calls come from enrichment with a bait or labelling near it, and not all partners need be listed.

Protein sequences, listed by entry. Tags and fused reporters are not part of them. Lines headed by an entry give the natural chain unless they say otherwise; changes in a name come on top.
UniProt O74525: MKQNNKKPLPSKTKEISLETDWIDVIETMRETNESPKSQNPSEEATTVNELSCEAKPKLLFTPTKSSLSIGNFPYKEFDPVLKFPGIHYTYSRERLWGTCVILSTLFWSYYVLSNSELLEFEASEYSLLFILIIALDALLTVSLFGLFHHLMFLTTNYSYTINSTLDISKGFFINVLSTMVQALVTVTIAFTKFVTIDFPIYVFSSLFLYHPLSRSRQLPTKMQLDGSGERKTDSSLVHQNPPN

Target: T1, TurboID-mCherry-Atg8 (S. pombe) (UniProt O94272)
T1 sequence: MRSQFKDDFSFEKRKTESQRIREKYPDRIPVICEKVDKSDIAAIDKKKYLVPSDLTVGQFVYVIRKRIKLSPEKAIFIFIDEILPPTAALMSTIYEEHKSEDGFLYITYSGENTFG
Assay: proximity labelling

binding: binds
Substance: Npr1 (SPCC70.04c), endogenous (from UniProt O74525)
